Our source for the binding values is PMC6910018.

Protein sequences, listed by entry. Tags and fused reporters are not part of them. Residues count along the entry.
UniProt Q9EPK8: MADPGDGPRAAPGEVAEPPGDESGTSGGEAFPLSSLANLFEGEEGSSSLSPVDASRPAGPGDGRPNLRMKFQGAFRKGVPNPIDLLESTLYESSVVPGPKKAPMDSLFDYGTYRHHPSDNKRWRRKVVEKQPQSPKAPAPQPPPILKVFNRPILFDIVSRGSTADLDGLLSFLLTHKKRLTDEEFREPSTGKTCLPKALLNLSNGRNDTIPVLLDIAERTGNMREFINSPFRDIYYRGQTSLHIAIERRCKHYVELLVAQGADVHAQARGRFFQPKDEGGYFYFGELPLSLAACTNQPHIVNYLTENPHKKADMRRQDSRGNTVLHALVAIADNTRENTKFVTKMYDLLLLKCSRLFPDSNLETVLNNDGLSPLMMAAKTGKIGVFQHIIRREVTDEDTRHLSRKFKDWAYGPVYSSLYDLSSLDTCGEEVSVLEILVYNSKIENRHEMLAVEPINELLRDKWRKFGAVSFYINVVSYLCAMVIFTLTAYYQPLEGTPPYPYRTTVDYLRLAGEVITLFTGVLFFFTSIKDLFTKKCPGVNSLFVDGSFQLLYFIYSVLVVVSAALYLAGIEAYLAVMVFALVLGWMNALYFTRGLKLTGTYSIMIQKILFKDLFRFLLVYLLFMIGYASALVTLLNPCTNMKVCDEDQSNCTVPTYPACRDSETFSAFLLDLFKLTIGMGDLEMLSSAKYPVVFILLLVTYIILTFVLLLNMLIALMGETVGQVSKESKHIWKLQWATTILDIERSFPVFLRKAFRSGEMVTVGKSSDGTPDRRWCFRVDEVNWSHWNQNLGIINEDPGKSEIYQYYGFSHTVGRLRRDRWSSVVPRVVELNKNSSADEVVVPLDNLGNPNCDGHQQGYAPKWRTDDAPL
UniProt P11881: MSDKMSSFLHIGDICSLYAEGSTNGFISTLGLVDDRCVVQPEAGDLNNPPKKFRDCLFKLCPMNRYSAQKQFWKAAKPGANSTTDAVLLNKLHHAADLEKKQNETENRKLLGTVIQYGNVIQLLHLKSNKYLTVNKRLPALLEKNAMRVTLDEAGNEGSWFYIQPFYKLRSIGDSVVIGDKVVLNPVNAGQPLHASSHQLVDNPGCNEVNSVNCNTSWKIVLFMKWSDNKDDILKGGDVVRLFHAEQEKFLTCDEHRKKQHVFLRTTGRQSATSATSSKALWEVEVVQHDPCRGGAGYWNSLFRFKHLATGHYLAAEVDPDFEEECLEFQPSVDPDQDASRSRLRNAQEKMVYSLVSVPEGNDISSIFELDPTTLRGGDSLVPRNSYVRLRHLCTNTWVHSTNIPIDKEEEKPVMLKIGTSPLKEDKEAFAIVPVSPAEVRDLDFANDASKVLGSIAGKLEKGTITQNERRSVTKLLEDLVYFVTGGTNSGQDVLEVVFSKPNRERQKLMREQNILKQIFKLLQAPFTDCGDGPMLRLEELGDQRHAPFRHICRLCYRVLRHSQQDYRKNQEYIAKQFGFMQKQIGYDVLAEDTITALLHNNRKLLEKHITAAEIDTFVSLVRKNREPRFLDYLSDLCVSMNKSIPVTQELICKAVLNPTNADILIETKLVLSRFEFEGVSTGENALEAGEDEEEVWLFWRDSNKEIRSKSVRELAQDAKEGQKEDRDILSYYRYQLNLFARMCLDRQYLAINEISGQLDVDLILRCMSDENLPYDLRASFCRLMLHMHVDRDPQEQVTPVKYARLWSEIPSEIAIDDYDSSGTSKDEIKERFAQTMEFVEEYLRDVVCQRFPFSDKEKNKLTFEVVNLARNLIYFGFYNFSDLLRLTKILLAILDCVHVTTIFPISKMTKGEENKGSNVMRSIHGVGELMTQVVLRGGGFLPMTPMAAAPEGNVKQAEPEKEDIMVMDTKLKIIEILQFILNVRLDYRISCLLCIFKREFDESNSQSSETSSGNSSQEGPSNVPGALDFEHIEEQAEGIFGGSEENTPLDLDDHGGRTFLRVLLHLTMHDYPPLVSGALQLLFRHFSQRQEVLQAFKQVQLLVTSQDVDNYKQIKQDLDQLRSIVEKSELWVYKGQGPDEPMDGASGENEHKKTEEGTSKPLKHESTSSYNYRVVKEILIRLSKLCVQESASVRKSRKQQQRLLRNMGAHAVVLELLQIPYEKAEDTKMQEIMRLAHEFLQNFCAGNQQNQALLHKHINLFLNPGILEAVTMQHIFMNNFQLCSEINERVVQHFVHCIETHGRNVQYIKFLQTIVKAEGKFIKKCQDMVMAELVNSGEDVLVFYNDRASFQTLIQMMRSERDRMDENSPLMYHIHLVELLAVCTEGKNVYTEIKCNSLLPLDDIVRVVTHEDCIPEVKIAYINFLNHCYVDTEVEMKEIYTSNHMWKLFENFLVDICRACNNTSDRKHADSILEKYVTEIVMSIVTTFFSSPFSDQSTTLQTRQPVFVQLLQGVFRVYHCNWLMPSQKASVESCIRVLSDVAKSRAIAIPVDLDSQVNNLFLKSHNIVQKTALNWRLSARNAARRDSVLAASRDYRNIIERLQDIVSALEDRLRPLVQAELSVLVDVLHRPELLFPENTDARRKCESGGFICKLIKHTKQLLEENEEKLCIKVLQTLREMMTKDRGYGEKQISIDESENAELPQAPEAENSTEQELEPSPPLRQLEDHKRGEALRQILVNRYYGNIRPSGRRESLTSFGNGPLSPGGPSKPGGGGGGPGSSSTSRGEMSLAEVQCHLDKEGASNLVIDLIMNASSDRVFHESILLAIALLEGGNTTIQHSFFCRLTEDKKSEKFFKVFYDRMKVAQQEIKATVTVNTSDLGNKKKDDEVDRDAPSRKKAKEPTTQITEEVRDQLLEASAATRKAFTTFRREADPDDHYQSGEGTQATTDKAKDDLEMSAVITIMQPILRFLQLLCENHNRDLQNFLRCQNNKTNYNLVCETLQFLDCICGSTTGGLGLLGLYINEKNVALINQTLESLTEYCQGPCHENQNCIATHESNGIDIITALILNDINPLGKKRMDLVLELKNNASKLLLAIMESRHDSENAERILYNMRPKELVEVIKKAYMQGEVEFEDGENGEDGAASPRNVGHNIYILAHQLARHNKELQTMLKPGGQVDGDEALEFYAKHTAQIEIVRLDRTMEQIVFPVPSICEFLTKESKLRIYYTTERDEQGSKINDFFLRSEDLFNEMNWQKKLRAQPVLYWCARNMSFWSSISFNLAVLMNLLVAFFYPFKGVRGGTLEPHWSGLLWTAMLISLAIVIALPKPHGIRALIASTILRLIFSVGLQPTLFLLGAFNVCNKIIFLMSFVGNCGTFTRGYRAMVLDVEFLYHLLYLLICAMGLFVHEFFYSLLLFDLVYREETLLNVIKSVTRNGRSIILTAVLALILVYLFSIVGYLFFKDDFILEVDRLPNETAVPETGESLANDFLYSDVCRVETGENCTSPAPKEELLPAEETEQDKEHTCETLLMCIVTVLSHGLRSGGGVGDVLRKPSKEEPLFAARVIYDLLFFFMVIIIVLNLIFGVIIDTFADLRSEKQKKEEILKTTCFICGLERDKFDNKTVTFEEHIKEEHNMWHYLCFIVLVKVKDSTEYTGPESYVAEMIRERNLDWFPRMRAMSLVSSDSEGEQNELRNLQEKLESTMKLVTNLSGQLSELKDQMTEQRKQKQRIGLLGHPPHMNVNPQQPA
UniProt P70414, residues 33-970: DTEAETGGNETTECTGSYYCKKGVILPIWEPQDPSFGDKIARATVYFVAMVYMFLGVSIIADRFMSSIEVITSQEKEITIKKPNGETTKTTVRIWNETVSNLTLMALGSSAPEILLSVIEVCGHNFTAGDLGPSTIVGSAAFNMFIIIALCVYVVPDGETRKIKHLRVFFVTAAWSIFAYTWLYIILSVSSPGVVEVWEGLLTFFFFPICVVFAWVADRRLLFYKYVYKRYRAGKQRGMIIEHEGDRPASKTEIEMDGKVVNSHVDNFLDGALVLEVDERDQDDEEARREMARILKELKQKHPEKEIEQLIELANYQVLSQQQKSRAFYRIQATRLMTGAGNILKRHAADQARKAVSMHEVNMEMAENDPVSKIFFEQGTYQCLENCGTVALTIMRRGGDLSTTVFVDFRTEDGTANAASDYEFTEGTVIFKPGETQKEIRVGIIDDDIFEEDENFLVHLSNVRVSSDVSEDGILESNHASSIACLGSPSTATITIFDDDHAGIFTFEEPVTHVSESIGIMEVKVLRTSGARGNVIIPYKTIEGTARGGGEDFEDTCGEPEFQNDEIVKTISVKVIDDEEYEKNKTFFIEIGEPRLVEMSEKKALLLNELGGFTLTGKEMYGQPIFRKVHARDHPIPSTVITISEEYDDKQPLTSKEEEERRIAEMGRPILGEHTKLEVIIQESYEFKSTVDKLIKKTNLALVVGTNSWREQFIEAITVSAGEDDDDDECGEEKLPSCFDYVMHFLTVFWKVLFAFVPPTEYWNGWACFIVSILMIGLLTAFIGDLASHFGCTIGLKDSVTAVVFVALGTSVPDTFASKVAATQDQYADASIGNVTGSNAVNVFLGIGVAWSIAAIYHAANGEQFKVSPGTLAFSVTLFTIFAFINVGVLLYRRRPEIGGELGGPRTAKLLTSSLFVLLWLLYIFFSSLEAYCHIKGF
UniProt S4R2P9, residues 31-928: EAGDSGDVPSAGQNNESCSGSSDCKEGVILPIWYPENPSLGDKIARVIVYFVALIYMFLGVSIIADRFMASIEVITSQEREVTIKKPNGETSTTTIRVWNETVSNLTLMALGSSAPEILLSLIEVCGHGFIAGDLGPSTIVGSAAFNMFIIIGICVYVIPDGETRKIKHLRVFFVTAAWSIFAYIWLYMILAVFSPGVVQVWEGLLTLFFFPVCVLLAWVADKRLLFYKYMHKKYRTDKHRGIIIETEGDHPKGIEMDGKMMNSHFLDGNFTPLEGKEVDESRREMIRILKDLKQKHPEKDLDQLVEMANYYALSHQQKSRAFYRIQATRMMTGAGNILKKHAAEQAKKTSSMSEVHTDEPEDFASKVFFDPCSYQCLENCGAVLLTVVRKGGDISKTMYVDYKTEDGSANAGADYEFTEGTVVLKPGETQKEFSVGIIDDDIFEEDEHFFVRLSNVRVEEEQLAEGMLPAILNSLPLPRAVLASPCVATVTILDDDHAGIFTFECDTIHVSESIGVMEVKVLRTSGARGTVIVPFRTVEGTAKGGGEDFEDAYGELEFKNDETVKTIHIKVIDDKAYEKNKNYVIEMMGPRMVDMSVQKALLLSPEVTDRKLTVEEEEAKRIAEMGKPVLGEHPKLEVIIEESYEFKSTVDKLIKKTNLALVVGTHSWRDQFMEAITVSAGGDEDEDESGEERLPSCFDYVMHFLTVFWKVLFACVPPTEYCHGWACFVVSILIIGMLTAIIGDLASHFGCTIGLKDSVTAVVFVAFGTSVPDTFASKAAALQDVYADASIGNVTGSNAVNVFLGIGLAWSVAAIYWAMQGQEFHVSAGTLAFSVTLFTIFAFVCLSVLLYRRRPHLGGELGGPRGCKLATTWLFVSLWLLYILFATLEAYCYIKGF
UniProt Q8K596, residues 21-921: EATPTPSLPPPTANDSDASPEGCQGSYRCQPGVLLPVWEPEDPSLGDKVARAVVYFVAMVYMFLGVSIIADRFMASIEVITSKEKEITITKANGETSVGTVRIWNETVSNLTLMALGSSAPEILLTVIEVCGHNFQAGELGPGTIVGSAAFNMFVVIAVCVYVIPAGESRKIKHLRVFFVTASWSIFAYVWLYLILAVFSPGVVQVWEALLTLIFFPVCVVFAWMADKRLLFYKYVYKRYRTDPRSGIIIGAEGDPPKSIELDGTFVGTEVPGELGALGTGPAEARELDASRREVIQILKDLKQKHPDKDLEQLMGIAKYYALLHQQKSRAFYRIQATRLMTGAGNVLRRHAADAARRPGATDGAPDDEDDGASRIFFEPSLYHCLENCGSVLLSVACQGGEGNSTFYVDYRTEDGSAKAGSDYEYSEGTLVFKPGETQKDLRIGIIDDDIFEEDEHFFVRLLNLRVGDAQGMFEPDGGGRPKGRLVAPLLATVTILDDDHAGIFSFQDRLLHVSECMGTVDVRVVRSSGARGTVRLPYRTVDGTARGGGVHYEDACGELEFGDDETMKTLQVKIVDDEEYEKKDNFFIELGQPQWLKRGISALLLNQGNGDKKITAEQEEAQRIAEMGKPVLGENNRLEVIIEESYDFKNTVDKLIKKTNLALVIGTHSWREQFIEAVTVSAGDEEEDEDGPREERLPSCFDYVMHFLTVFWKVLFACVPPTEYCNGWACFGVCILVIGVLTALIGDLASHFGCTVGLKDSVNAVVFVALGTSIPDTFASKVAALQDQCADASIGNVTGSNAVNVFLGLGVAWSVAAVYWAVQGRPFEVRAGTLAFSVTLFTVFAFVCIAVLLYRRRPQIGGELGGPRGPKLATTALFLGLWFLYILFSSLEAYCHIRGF

Common to all, as to test: co-IP; endogenous proteins of mouse tracheal smooth muscle lysate (1% Nonidet P-40, 150 mM NaCl, 20 mM Tris-HCl pH 8.0); 800 ug protein with 5 ug antibody or preimmune IgG overnight at 4 C, protein A agarose, washed with PBS, immunoblot
Test [1] concerns the target Transient receptor potential vanilloid 4 (mouse (endogenous in tracheal smooth muscle)) (UniProt Q9EPK8).
Test [2] deals with IP3 receptor 1 (inositol 1,4,5-trisphosphate receptor subtype 1) (mouse (endogenous in tracheal smooth muscle)) (UniProt P11881).
For test [3], the target named is Na+/Ca2+ exchanger 1 (mouse (endogenous in tracheal smooth muscle)) (UniProt P70414).
Test [4] deals with Na+/Ca2+ exchanger 3 (mouse (endogenous in tracheal smooth muscle)) (UniProt S4R2P9).
In test [5] the target is Na+/Ca2+ exchanger 2 (mouse (endogenous in tracheal smooth muscle)) (UniProt Q8K596).

These are yes or no findings as the source states them, for the method shown. In cells and extracts the contact can be indirect. Some results given as binding are weak or reduced against the parent protein; the word gives no strength.

Consider “Na+/Ca2+ exchanger 2 (from UniProt Q8K596 21-921)”, for which the binding result in test [1] and in test [2] was “binds” each time.

For the substance “Na+/Ca2+ exchanger 3 (from UniProt S4R2P9 31-928)”, the binding entry in test [1] and in test [2] was “binds” in each case.

Take “Transient receptor potential vanilloid 4 (from UniProt Q9EPK8 1-871)”: the binding entry in test [3], in test [4], in test [5] and in test [2] was “binds” in each case.

As to “IP3 receptor 1 (inositol 1,4,5-trisphosphate receptor subtype 1) (from UniProt P11881 1-2749)”, the binding result in test [3], in test [1], in test [4] and in test [5] was “binds” throughout.

For “Na+/Ca2+ exchanger 1 (from UniProt P70414 33-970)”, the binding result in test [1] and in test [2] was “binds” each time.
